Results are given in words; binding and its absence hold for the method and conditions named. Binding seen in cells or lysates may run through a third protein. Some results given as binding are weak or reduced against the parent protein; the word gives no strength.
How the values were obtained:
[1] = target: stimulator of interferon genes (STING), endogenous in primary human monocyte-derived macrophages (human (endogenous in primary MDMs)) (UniProt Q86WV6); test: co-IP; STING-IP protocol on cell lysates of primary human MDMs, immunoblot
[2] = target: interferon-gamma inducible factor 16 (IFI16), endogenous in THP-1 cells (human (endogenous in THP-1)) (UniProt Q16666); test: co-IP; IFI16-IP: cleared cytosolic lysates of control and STING KO PMA-differentiated THP-1 cells, unstimulated or transfected with dsDNA (4 ug/ml) for 2 h (and 4 h); 6 ug anti-IFI16 overnight at 4 C, protein G Dynabeads, immunoblot

Sequences of proteins named here, by UniProt entry; tags and fusion partners are left off.
UniProt Q86WV6: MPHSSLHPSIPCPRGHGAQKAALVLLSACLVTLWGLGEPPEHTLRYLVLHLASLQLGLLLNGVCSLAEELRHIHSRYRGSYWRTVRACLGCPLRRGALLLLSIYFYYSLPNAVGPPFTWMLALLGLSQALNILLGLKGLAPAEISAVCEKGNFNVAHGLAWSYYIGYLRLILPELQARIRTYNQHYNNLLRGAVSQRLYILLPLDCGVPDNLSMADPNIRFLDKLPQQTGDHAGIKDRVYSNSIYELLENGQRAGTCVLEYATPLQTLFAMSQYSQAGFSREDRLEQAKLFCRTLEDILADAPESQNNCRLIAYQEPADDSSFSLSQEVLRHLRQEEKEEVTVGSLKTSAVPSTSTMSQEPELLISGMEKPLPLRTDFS
UniProt Q16666: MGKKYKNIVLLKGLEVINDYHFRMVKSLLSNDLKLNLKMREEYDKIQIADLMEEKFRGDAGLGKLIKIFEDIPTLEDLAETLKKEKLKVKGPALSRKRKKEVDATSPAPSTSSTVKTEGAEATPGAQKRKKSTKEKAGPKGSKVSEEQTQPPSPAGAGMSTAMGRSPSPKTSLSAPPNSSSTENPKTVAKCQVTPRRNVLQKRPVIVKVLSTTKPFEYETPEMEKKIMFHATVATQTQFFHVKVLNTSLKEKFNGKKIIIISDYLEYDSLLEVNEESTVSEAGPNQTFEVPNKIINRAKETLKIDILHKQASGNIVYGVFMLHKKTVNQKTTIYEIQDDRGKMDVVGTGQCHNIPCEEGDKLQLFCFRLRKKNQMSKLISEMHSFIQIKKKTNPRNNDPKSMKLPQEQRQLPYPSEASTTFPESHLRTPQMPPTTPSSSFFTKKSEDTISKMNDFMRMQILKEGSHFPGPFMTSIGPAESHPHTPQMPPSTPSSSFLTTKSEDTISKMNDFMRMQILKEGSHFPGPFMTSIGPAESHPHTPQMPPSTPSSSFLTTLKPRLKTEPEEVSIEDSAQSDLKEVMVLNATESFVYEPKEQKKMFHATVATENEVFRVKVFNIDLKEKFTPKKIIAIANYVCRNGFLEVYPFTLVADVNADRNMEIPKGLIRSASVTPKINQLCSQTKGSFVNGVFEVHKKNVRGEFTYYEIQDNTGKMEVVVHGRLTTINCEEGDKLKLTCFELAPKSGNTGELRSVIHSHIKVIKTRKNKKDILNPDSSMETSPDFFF

## interferon-gamma inducible factor 16 (IFI16), endogenous in primary human monocyte-derived macrophages (from UniProt Q16666 1-785)
[1]
  binding: binds

B1: TANK-binding kinase 1 (TBK1), endogenous in THP-1 cells (protein, UniProt Q9UHD2 1-729)
chain: MQSTSNHLWLLSDILGQGATANVFRGRHKKTGDLFAIKVFNNISFLRPVDVQMREFEVLKKLNHKNIVKLFAIEEETTTRHKVLIMEFCPCGSLYTVLEEPSNAYGLPESEFLIVLRDVVGGMNHLRENGIVHRDIKPGNIMRVIGEDGQSVYKLTDFGAARELEDDEQFVSLYGTEEYLHPDMYERAVLRKDHQKKYGATVDLWSIGVTFYHAATGSLPFRPFEGPRRNKEVMYKIITGKPSGAISGVQKAENGPIDWSGDMPVSCSLSRGLQVLLTPVLANILEADQEKCWGFDQFFAETSDILHRMVIHVFSLQQMTAHKIYIHSYNTATIFHELVYKQTKIISSNQELIYEGRRLVLEPGRLAQHFPKTTEENPIFVVSREPLNTIGLIYEKISLPKVHPRYDLDGDASMAKAITGVVCYACRIASTLLLYQELMRKGIRWLIELIKDDYNETVHKKTEVVITLDFCIRNIEKTVKVYEKLMKINLEAAELGEISDIHTKLLRLSSSQGTIETSLQDIDSRLSPGGSLADAWAHQEGTHPKDRNVEKLQVLLNCMTEIYYQFKKDKAERRLAYNEEQIHKFDKQKLYYHATKAMTHFTDECVKKYEAFLNKSEEWIRKMLHLRKQLLSLTNQCFDIEEEVSKYQEYTNELQETLPQKMFTASSGIKHTMTPIYPSSNTLVEMTLGMKKLKEEMEGVVKELAENNHILERFGSLTMDGGLRNVDCL
[2]
  binding: binds

B2: phosphorylated TANK-binding kinase 1 (phospho-TBK1), endogenous in THP-1 cells (protein, UniProt Q9UHD2 1-729)
chain: MQSTSNHLWLLSDILGQGATANVFRGRHKKTGDLFAIKVFNNISFLRPVDVQMREFEVLKKLNHKNIVKLFAIEEETTTRHKVLIMEFCPCGSLYTVLEEPSNAYGLPESEFLIVLRDVVGGMNHLRENGIVHRDIKPGNIMRVIGEDGQSVYKLTDFGAARELEDDEQFVSLYGTEEYLHPDMYERAVLRKDHQKKYGATVDLWSIGVTFYHAATGSLPFRPFEGPRRNKEVMYKIITGKPSGAISGVQKAENGPIDWSGDMPVSCSLSRGLQVLLTPVLANILEADQEKCWGFDQFFAETSDILHRMVIHVFSLQQMTAHKIYIHSYNTATIFHELVYKQTKIISSNQELIYEGRRLVLEPGRLAQHFPKTTEENPIFVVSREPLNTIGLIYEKISLPKVHPRYDLDGDASMAKAITGVVCYACRIASTLLLYQELMRKGIRWLIELIKDDYNETVHKKTEVVITLDFCIRNIEKTVKVYEKLMKINLEAAELGEISDIHTKLLRLSSSQGTIETSLQDIDSRLSPGGSLADAWAHQEGTHPKDRNVEKLQVLLNCMTEIYYQFKKDKAERRLAYNEEQIHKFDKQKLYYHATKAMTHFTDECVKKYEAFLNKSEEWIRKMLHLRKQLLSLTNQCFDIEEEVSKYQEYTNELQETLPQKMFTASSGIKHTMTPIYPSSNTLVEMTLGMKKLKEEMEGVVKELAENNHILERFGSLTMDGGLRNVDCL
modifications: phosphorylated (detected with anti-phospho-TBK1; site not given)
[2]
  binding: binds

From publication PMC5309897
